Patent publication US20050222029A1
These are yes or no findings as the source states them, for the method shown. Binding calls can cover weak binding; strength is not graded here.

The chains behind the UniProt entries cited, without tags or fusion partners. Where a name states a change or a piece, a line headed by the entry shows the natural chain unless it says otherwise. Residues count along the entry.
UniProt Q9UI14: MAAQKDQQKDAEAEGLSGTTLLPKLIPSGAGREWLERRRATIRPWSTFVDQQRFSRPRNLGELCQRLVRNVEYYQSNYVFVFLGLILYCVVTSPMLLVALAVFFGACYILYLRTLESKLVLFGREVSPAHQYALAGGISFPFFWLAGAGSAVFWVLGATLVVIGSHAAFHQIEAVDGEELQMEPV
UniProt P32418: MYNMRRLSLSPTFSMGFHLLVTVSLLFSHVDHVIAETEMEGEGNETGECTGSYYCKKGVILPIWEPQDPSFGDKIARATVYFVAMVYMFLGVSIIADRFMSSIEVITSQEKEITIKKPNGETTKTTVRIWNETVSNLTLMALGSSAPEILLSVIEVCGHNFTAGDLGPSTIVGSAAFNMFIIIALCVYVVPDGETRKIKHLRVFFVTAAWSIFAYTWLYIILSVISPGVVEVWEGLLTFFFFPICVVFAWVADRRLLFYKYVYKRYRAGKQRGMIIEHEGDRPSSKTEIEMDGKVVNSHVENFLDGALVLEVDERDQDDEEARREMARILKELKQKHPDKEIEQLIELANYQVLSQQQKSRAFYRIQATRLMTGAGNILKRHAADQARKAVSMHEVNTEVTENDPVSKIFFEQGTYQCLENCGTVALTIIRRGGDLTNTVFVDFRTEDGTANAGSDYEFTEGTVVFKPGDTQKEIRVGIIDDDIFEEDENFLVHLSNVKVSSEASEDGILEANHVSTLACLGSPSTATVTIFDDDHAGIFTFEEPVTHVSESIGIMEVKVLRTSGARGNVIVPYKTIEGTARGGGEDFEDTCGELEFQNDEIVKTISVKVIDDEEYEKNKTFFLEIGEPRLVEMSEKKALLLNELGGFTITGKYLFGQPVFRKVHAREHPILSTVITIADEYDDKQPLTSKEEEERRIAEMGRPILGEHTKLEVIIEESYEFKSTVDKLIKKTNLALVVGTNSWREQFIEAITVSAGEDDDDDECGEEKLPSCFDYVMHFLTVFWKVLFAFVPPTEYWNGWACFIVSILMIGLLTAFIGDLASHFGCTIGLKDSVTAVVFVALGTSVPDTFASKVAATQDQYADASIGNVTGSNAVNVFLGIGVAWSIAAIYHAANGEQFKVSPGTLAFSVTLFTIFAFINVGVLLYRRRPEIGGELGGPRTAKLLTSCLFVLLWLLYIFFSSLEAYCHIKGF
UniProt Q13438: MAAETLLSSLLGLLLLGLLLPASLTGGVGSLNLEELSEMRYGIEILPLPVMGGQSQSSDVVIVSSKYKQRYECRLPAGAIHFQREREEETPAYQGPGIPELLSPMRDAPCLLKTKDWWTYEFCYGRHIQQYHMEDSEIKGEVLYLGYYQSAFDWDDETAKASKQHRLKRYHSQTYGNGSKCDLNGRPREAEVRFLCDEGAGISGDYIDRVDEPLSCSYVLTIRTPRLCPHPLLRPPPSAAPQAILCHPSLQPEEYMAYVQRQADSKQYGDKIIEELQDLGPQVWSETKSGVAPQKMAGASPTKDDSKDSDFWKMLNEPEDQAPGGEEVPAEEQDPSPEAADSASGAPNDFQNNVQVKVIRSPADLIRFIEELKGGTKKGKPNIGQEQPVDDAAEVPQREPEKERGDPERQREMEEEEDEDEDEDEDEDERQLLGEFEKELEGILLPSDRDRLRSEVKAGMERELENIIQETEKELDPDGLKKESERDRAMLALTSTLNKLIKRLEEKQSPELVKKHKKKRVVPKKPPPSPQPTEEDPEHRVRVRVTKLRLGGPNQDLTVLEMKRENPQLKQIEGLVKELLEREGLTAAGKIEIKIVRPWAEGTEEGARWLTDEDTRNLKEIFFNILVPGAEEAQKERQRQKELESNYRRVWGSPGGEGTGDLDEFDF
UniProt P02647: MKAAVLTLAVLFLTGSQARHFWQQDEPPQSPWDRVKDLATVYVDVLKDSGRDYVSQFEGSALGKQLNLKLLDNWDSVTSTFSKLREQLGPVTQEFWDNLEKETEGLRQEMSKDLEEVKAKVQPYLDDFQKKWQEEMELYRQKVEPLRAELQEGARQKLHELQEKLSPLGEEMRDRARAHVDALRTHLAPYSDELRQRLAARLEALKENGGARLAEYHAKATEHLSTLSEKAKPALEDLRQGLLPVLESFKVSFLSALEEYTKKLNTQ
UniProt O15392, residues 52-142: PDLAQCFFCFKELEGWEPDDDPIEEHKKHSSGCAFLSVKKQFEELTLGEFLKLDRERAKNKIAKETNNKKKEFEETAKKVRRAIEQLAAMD
UniProt Q99816, residues 317-390: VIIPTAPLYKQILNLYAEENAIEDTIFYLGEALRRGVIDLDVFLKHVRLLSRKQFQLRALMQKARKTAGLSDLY

Experiments:
[1] = target: T1, golgi autoantigen, 84 kD protein (Golgin-84) 563-731 (human) (UniProt Q8TBA6); experiment: yeast two-hybrid
T1 sequence (looked up): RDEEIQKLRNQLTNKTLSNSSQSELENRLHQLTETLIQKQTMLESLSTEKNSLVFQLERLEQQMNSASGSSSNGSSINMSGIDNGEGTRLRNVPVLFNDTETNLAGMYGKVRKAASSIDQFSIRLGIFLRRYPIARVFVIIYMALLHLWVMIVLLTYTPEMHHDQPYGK

[2] = target: T2, golgi autoantigen, 84 kD protein (Golgin-84) 534-731 (human) (UniProt Q8TBA6); experiment: yeast two-hybrid
T2 sequence (looked up): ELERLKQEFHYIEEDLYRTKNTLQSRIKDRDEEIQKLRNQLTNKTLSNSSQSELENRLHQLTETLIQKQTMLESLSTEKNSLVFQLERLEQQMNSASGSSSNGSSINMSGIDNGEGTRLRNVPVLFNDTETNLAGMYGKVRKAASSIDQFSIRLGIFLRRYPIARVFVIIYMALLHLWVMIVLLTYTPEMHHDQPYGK

[3] = target: prenylated Rab acceptor 1 (PRA1) 1-185 (human) (UniProt Q9UI14); experiment: yeast two-hybrid
[4] = target: T3, hypothetical protein FLJ20724 (FLJ20724) 162-248 (human) (UniProt Q9H0C5); experiment: yeast two-hybrid
T3 sequence (looked up): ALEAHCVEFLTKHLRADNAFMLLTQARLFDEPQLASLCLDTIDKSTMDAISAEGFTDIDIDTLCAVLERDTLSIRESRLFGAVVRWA

[5] = target: T4, golgi autoantigen, 84 kD protein (Golgin-84) 512-726 (human) (UniProt Q8TBA6); experiment: yeast two-hybrid
T4 sequence (looked up): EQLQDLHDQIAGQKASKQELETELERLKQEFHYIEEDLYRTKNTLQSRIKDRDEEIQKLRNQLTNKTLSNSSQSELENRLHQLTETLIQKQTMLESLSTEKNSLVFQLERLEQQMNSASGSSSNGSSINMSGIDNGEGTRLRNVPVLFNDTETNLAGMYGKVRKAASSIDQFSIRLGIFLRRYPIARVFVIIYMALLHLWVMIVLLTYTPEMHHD

[6] = target: apolipoprotein B-100 (APOB) 4307-4522 (human) (UniProt P04114); experiment: yeast two-hybrid
[7] = target: prenylated Rab acceptor 1 (PRA1) 1-185 (human) (UniProt Q9UI14); experiment: yeast two-hybrid, liver library
[8] = target: Na^+/Ca^2+-exchange protein 1 (SLC8A1) 302-575 (human) (UniProt P32418); experiment: yeast two-hybrid
[9] = target: Amplified in osteosarcoma-9 (OS-9) 171-350 (human) (UniProt Q13438); experiment: yeast two-hybrid, brain library
[10] = target: Amplified in osteosarcoma-9 (OS-9) 213-503 (human) (UniProt Q13438); experiment: yeast two-hybrid, brain library
[11] = target: Amplified in osteosarcoma-9 (OS-9) 171-350 (human) (UniProt Q13438); experiment: yeast two-hybrid
[12] = target: Amplified in osteosarcoma-9 (OS-9) 213-503 (human) (UniProt Q13438); experiment: yeast two-hybrid

Measured: binding

Apolipoprotein A-I (APOA1) 23-267 (from UniProt P02647)
binds: [1] | [2]

Apolipoprotein A-I (APOA1) 106-267 (from UniProt P02647)
binds: [3] | [4] | [5] | [6] | [7]

Survivin (BIRC5) 52-143 (from UniProt O15392 52-142)
binds: [8]

Tumor Suppressor (TSG101) 317-391 (from UniProt Q99816 317-390)
binds: [9] | [10] | [11] | [12]
